Measurements: article PMC6336354, “A transient helix in the disordered region of dynein light intermediate chain links the motor to structurally diverse adaptors for cargo transport” (PLoS Biology, 2019)
Read-outs that look alike come from different tables or passages of the source. Results are given in words; binding and its absence hold for the method and conditions named. Some binding calls cover weakened binding; strength is not graded here. For some of these results: Sequences can lack the tags named with a protein. Blank lines part the entries; values can stand above or below the molecule they belong to.

Sequences of proteins named here, by UniProt entry; tags and fusion partners are left off. A change or cut given only in a name is not applied to a line headed by its entry. A line that says so, or that is headed by a name, gives the form on record, which may keep a tag or linker.
GST::LIC2(451–492)::6xHis (O43237, form named): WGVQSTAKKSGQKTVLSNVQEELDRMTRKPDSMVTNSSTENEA
GST::LIC1-C(L451A/L452A)::6xHis (Q9Y6G9, form named): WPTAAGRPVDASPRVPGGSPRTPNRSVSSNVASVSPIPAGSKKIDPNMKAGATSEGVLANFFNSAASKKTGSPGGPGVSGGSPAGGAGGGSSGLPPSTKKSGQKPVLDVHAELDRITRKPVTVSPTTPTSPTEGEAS
GST::LIC1(388–523)::6xHis (Q9Y6G9, form named): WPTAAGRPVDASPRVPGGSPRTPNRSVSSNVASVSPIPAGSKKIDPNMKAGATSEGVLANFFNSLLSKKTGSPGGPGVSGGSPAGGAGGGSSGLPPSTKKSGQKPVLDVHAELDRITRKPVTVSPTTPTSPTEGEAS
GST::LIC1-C(F447A/F448A)::6xHis (Q9Y6G9, form named): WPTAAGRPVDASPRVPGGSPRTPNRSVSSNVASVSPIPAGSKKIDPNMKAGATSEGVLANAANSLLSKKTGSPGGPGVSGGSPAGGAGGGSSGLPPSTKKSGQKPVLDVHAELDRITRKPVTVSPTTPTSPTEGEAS
GST::LIC1(472–523)::6xHis (Q9Y6G9, form named): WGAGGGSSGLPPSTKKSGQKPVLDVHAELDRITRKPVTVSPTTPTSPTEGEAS
GST::LIC1-C(Δ440–455)::6xHis (Q9Y6G9, form named): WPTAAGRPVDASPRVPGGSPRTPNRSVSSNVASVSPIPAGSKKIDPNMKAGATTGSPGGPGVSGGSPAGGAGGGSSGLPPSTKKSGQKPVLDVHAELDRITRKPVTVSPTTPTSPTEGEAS
GST::LIC1(440–523)::6xHis (Q9Y6G9, form named): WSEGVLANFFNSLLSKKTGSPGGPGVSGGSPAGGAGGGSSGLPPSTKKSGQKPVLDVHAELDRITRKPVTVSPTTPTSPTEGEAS
UniProt Q96NA2: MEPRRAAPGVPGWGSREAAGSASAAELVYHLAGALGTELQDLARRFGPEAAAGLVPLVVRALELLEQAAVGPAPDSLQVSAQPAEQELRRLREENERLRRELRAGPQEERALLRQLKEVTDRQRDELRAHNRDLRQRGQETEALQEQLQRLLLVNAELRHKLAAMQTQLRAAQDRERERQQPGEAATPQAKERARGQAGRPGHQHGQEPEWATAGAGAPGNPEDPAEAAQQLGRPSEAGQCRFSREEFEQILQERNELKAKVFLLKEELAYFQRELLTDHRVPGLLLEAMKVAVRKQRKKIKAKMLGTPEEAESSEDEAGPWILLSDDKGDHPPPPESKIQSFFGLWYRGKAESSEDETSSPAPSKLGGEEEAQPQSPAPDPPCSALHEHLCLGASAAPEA

Tests used:
Experiment in all cases: pull-down; GST::LIC::6xHis (50 pmol) with 50 or 250 pmol adaptor and glutathione agarose, 1 h at 4°C, 150 μL of 50 mM HEPES, 100 mM NaCl, 5 mM DTT, pH 7.5, 0.1% Tween 20; Coomassie staining and immunoblot against Strep-tag II; both purified
[1] = target: GST::LIC2(451–492)::6xHis (human) (UniProt O43237)
[2] = target: GST::LIC1-C(L451A/L452A)::6xHis (human) (UniProt Q9Y6G9)
[3] = target: GST::LIC1(388–523)::6xHis (human) (UniProt Q9Y6G9)
[4] = target: GST::LIC1-C(F447A/F448A)::6xHis (human) (UniProt Q9Y6G9)
[5] = target: GST::LIC1(472–523)::6xHis (human) (UniProt Q9Y6G9)
[6] = target: GST::LIC1-C(Δ440–455)::6xHis (human) (UniProt Q9Y6G9)
[7] = target: GST::LIC1(440–455)::6xHis (human) (UniProt Q9Y6G9)
[8] = target: GST::LIC2(451–492)::6xHis (human) (UniProt O43237); remark: listed apart in the source
[9] = target: GST::LIC1(440–523)::6xHis (human) (UniProt Q9Y6G9)

B1: 6xHis::MBP::TRAK1(103–187)::GCN4^CC::Strep-tag II (protein, UniProt Q9UPV9 103-187)
chain: GQMTKTYNDIDAVTRLLEEKERDLELAARIGQSLLKKNKTLTERNELLEEQVEHIREEVSQLRHELSMKDELLQFYTSAAEESEPVKQLEDKVEELLSKNAHLENEVARLKKLV
- binding [2]: no binding (tested: 250 pmol in 150 μL)
- binding [3]: binds weakly

B2: 6xHis::MBP::TRAK1(103–187)::Strep-tag II (domain or fragment, UniProt Q9UPV9 103-187)
chain: GQMTKTYNDIDAVTRLLEEKERDLELAARIGQSLLKKNKTLTERNELLEEQVEHIREEVSQLRHELSMKDELLQFYTSAAEESEP
- binding [3]: no binding (tested: 250 pmol in 150 μL)

B3: RAB11FIP3(2–756)::Strep-tag II (protein, UniProt O75154 2-756)
chain: ASAPPASPPGSEPPGPDPEPGGPDGPGAAQLAPGPAELRLGAPVGGPDPQSPGLDEPAPGAAADGGARWSAGPAPGLEGGPRDPGPSAPPPRSGPRGQLASPDAPGPGPRSEAPLPELDPLFSWTEEPEECGPASCPESAPFRLQGSSSSHRARGEVDVFSPFPAPTAGELALEQGPGSPPQPSDLSQTHPLPSEPVGSQEDGPRLRAVFDALDGDGDGFVRIEDFIQFATVYGAEQVKDLTKYLDPSGLGVISFEDFYQGITAIRNGDPDGQCYGGVASAQDEEPLACPDEFDDFVTYEANEVTDSAYMGSESTYSECETFTDEDTSTLVHPELQPEGDADSAGGSAVPSECLDAMEEPDHGALLLLPGRPHPHGQSVITVIGGEEHFEDYGEGSEAELSPETLCNGQLGCSDPAFLTPSPTKRLSSKKVARYLHQSGALTMEALEDPSPELMEGPEEDIADKVVFLERRVLELEKDTAATGEQHSRLRQENLQLVHRANALEEQLKEQELRACEMVLEETRRQKELLCKMEREKSIEIENLQTRLQQLDEENSELRSCTPCLKANIERLEEEKQKLLDEIESLTLRLSEEQENKRRMGDRLSHERHQFQRDKEATQELIEDLRKQLEHLQLLKLEAEQRRGRSSSMGLQEYHSRARESELEQEVRRLKQDNRNLKEQNEELNGQIITLSIQGAKSLFSTAFSESLAAEISSVSRDELMEAIQKQEEINFRLQDYIDRIIVAIMETNPSILEVK
- binding [2]: no binding (tested: 50 pmol in 150 μL)
- binding [4]: no binding (tested: 50 pmol in 150 μL)
- binding [5]: no binding (tested: 50 pmol in 150 μL)
- binding [6]: no binding (tested: 50 pmol in 150 μL)
- binding [7]: no binding (tested: 50 pmol in 150 μL)

B5: HOOK3(2–552)::Strep-tag II (domain or fragment, UniProt Q86VS8 2-552)
chain: FSVESLERAELCESLLTWIQTFNVDAPCQTVEDLTNGVVMAQVLQKIDPAYFDENWLNRIKTEVGDNWRLKISNLKKILKGILDYNHEILGQQINDFTLPDVNLIGEHSDAAELGRMLQLILGCAVNCEQKQEYIQAIMMMEESVQHVVMTAIQELMSKESPVSAGNDAYVDLDRQLKKTTEELNEALSAKEEIAQRCHELDMQVAALQEEKSSLLAENQVLMERLNQSDSIEDPNSPAGRRHLQLQTQLEQLQEETFRLEAAKDDYRIRCEELEKEISELRQQNDELTTLADEAQSLKDEIDVLRHSSDKVSKLEGQVESYKKKLEDLGDLRRQVKLLEEKNTMYMQNTVSLEEELRKANAARSQLETYKRQVVELQNRLSEESKKADKLDFEYKRLKEKVDSLQKEKDRLRTERDSLKETIEELRCVQAQEGQLTTQGLMPLGSQESSDSLAAEIVTPEIREKLIRLQHENKMLKLNQEGSDNEKIALLQSLLDDANLRKNELETENRLVNQRLLEVQSQVEELQKSLQDQGSKAEDSVLLKKKLEEHL
- binding [2]: no binding (tested: 50 pmol in 150 μL)
- binding [4]: no binding (tested: 50 pmol in 150 μL)
- binding [5]: no binding (tested: 50 pmol in 150 μL)
- binding [9]: binds weakly
- binding [6]: no binding (tested: 50 pmol in 150 μL)
- binding [7]: no binding (tested: 50 pmol in 150 μL)

The next lines start with the values.

- binding [1]: no binding (tested: 50 pmol in 150 μL)
Molecule: RILP(1–401)::Strep-tag II (from UniProt Q96NA2 1-401)

- binding [8]: no binding (tested: 250 pmol in 150 μL)
B4: SPDL1(2–359)::Strep-tag II (domain or fragment, UniProt Q96EA4 2-359)
chain: EADIITNLRCRLKEAEEERLKAAQYGLQLVESQNELQNQLDKCRNEMMTMTESYEQEKYTLQREVELKSRMLESLSCECEAIKQQQKMHLEKLEEQLSRSHGQEVNELKTKIEKLKVELDEARLSEKQLKHQVDHQKELLSCKSEELRVMSERVQESMSSEMLALQIELTEMESMKTTLKEEVNELQYRQEQLELLITNLMRQVDRLKEEKEEREKEAVSYYNALEKARVANQDLQVQLDQALQQALDPNSKGNSLFAEVEDRRAAMERQLISMKVKYQSLKKQNVFNREQMQRMKLQIATLLQMKGSQTEFEQQERLLAMLEQKNGEIKHLLGEIRNLEKFKNLYDSMESKPSVDSG
